From patent US20180105596A1 (ELSALYS BIOTECH, published 2018)
Where a chain is given by its changes, count along the chain named. Results are given in words; binding and its absence hold for the method and conditions named. Some binding calls cover weakened binding; strength is not graded here. For part of these data: Tags and fused reporters may be left off the sequences shown. Values belong to the binder of their own block, whether it stands above or below them.

How the values were obtained:
[1] = target: T1, human recombinant full-length Tyro3 protein (OriGene TP308260) (human) (UniProt Q06418); assay: ELISA, full-length Tyro3 coated 2.5 µg/mL, scFv 10 µg/mL, anti-His-HRP
T1 sequence: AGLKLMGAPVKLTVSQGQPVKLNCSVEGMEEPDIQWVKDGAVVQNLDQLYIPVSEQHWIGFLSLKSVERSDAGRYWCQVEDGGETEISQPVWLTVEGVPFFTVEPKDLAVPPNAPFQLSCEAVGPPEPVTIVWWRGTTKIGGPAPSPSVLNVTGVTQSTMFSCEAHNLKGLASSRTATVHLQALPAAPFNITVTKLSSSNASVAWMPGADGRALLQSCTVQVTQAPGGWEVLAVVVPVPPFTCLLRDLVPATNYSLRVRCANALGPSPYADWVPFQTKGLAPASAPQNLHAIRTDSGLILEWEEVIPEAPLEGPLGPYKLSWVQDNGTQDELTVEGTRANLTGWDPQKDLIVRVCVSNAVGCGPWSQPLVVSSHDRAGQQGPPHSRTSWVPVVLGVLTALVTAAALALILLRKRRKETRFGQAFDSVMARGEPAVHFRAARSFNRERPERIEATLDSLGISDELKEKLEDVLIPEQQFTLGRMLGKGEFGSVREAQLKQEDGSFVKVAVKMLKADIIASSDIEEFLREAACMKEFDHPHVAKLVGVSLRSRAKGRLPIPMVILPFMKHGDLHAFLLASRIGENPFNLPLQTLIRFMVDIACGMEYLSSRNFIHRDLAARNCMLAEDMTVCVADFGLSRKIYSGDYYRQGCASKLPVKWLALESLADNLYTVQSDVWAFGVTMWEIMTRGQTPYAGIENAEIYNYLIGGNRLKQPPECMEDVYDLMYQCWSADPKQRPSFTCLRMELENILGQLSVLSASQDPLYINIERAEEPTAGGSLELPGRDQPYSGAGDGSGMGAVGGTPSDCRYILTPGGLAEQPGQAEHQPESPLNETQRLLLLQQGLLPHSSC

[2] = target: T2, Tyro3 ECD Ig1-Ig2-FNIII 1 (human) (UniProt Q06418); assay: sandwich ELISA, Strep-tagged fragment captured on StrepMAB plate, scFv 10 µg/mL (Table 17), anti-FLAG-HRP
T2 sequence (fragment): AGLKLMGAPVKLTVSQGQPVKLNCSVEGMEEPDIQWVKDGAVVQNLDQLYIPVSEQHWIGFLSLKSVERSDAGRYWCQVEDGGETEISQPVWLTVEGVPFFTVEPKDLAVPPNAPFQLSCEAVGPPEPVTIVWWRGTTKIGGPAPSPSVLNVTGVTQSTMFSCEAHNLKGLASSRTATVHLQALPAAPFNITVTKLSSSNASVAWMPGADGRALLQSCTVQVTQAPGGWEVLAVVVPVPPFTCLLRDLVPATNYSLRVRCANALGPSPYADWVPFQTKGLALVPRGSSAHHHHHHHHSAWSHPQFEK

[3] = target: T3, immunoglobulin-like domain Ig-2 of human Tyro3 (human) (UniProt Q06418); assay: double sandwich ELISA on captured fragments of hTyro3 ECD
T3 sequence: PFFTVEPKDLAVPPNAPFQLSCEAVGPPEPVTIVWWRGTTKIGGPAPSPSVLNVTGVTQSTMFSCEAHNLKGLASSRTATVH

[4] = target: T4, cynomolgus Tyro3 ECD, His-Strep tagged; assay: sandwich ELISA, Strep-tagged cynomolgus Tyro3 ECD captured on StrepMAB plate, IgG 3-fold from 3 µg/mL, anti-human IgG1-HRP
T4 construct: also called cyno TYRO3 ECD 8hisstrep
T4 extracellular domain: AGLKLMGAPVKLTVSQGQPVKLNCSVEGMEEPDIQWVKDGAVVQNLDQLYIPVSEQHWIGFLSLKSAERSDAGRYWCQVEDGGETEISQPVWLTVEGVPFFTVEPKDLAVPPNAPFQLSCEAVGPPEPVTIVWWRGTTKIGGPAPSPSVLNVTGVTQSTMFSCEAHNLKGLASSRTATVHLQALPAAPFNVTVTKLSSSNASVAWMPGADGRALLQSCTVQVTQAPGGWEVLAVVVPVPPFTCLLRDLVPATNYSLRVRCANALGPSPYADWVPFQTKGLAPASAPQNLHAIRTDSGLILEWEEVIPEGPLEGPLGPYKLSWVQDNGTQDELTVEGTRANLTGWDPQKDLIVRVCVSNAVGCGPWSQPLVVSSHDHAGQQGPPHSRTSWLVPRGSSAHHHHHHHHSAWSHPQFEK
Experimental: A double sandwich ELISA was developed. This assay consisted in measuring the binding of the anti-Tyro3 antibodies to be tested on immobilized strep-tagged entire human Tyro3 ECD captured directly on ELISA plate pre-coated with an anti-strep mAb (StrepMAB-Immo coated microplates from IBA biotech). Briefly, the 96 wells of StrepMAB-Immo coated microplate were washed three times with 300 μL of the PBS Tween 0.2% (referred as ELISA washing solution). The capture of an excess of purified strep tagged hTyro3 ECD protein was achieved by a one hour incubation at room temperature. In these experiments, 3 μg of purified protein diluted in PBS, BSA 1% (referred as ELISA diluent solution) were immobilized per well. The wells were washed three times with 300 μL of the washing solution. The non-specific binding sites on the well surface were blocked during 60 min at room temperature with 200 μL/well of blocking solution (PBS, BSA 3%). The wells were washed five times with 300 μL of the washing solution. Then, 100 μl (in duplicates) of the different concentrations of anti-Tyro3 antibodies to be tested diluted in ELISA diluent solution, were added per well and allowed to incubate during 1 hour at room temperature. An Irrelevant control IgG2656 was also added in this experiment. For anti-Tyro3 antibodies in the ScFv format, experiments were performed with 6 concentrations in duplicates (FIG. 3A). […]

[5] = target: T5, fibronectin type III domain FNIII-1 of human Tyro3 (human) (UniProt Q06418); assay: double sandwich ELISA on captured fragments of hTyro3 ECD
T5 sequence: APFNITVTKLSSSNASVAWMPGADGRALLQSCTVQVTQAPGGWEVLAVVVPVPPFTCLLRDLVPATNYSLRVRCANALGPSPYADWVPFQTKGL

binding [1]: binds
binding [2]: binds
B1: anti-Tyro3 scFv 2414 (scFv, V domains shown)
VH: EVQLVQSGADVKKPGASLTISCQASGYTFTDYWISWVRQKPGKGLEWMGQINRHASNTMYGPSFQGHVTISADRSTATAYLQWRSLEASDTAMYYCVRSGGATSGGTIPEYYQHWGPGTLVTVSS
VL: SYELTQPPSVSVSPGQTARITCSGDALPKKYAYWYQQKSGQAPVLVIYEDWKRASGIPERFSGSSSGTMATLTISGAQVEDEADYYCYSQERKGNYFVFGGGTKLTVL
notes: Tested as a single-chain Fv made in E. coli

binding [3]: binds
binding [1]: binds
binding [2]: binds
B2: anti-Tyro3 scFv 2412 (scFv, V domains shown)
VH: B1 VH with Q50R, N52R, R53P, H54L, A55L, N57H, G100W, G101L
VL: B1 VL with W51A, A54V, Q90A, E91S, R92A, K93N, F97R
notes: as for B1

binding [1]: binds
binding [2]: binds
B3: anti-Tyro3 scFv 2709 (scFv, V domains shown)
VH: B1 VH with Q50A, N52S, H54N, A55G, N57T, M59Y, A102L, T122P
VL: B1 VL with W51K, A54V, Q90L, E91A, R92V, K93D, F97G
notes: as for B1

binding [4]: binds
B4: IgG2413 (antibody, V domains shown)
VH: EVQLVQSGADVKKPGASLTISCQASGYTFTDYWISWVRQKPGKGLEWMGRIHTYQSSTRYGPSFQGHVTISADRSTATAYLQWRSLEASDTAMYYCVRHHSTTTANPYSSWGPGTLVTVSS
VL: B1 VL with W51D, A54L, Q90T, R92I, K93N, F97A
notes: also called IGX2413

binding [5]: binds
binding [2]: binds
B5: anti-Tyro3 scFv 2718 (scFv, V domains shown)
VH: EVQLVQSGADVKKPGASLTISCQASGYTFTDYWISWVRQKPGKGLEWMGHINPMRSTTTYGPSFQGHVTISADRSTATAYLQWHSLEASDTAMYYCVRNDNHDDYTYTDDWGPGTLVTVSS
VL: B1 VL with W51T, A54H, Q90A, R92H, K93R, F97A
notes: as for B1

binding [3]: binds
binding [1]: binds
binding [2]: binds
B6: anti-Tyro3 scFv 2411 (scFv, V domains shown)
VH: EVQLVQSGADVKKPGASLTISCQASGYTFTDYWISWVRQKPGKGLEWMGSITRSSSRTHYGPSFQGHVTISADRSTATAYLQWRSLEASDTAMYYCVRGYTHLRTWGPGTLVTVSS
VL: B1 VL with W51S, A54S, Q90A, E91N, R92Q, K93R, F97M
notes: as for B1

binding [1]: binds
binding [2]: binds
B7: anti-Tyro3 scFv 2717 (scFv, V domains shown)
VH: EVQLVQSGADVKKPGASLTISCQASGYTFTDYWISWVRQKPGKGLEWMGEIFLPPSTTVYGPSFQGHVTISADRSTATAYLQWRSLEASDTAMYYCVRQTRLTSGGTIPEYYQHWGPGTLVTVSS
VL: B1 VL with W51N, A54G, Q90K, E91S, R92P, K93E, F97M
notes: as for B1

binding [3]: binds
binding [1]: binds
binding [2]: binds
B8: anti-Tyro3 scFv 2415 (scFv, V domains shown)
VH: B1 VH with N52R, R53G, H54P, N57A, M59H, S99H, G100Q, G101Q, A102Q
VL: B1 VL with W51K, A54I, Q90T, E91S, R92T, K93G, F97M
notes: as for B1

binding [3]: binds
binding [1]: binds
binding [2]: binds
B9: anti-Tyro3 scFv 2713 (scFv, V domains shown)
VH: B1 VH with Q50R, N52S, A55G, N57Q, M59Y, S99A, A102Q
VL: B1 VL with W51H, Q90I, E91S, R92P, K93A, F97G
notes: as for B1

binding [3]: binds
binding [1]: binds
binding [2]: binds
B10: anti-Tyro3 scFv 2413 (scFv, V domains shown)
VH: B4 VH
VL: B1 VL with W51D, A54L, Q90T, R92I, K93N, F97A
notes: as for B1

binding [3]: binds
binding [1]: binds
binding [2]: binds
B11: anti-Tyro3 scFv 2711 (scFv, V domains shown)
VH: B1 VH with N52R, R53G, H54Q, A55H, N57S, M59L, S99H, G101A, A102S
VL: B1 VL with W51A, A54S, Q90L, E91S, R92D, K93S
notes: as for B1

binding [4]: binds
B12: IgG2411 (antibody, V domains shown)
VH: B6 VH
VL: B1 VL with W51S, A54S, Q90A, E91N, R92Q, K93R, F97M
notes: also called IGX2411

binding [1]: binds
binding [2]: binds
B13: anti-Tyro3 scFv 2410 (scFv, V domains shown)
VH: B1 VH with N52V, R53P, H54R, N57R, M59N, S99P, G100Y, G101F, A102Q
VL: B1 VL with W51E, K93N, F97A
notes: as for B1
